Laboratory results taken from PMC10841842, “Single-molecule quantitation of RNA-binding protein occupancy and stoichiometry defines a role for Yra1 (Aly/REF) in nuclear mRNP organization” (Cell reports, 2023).
These are yes or no findings as the source states them, for the method shown. In cells and extracts the contact can be indirect. Some results given as binding are weak or reduced against the parent protein; the word gives no strength. For some assays here: Tags and fused reporters may be left off the sequences shown. Values belong to the binder of their own block, whether it stands above or below them.

Columns and labels:
[1] = target: T1, protein A (PrA)-tagged Cbp80 (S. cerevisiae) (UniProt P34160); test: pull-down; mRNP-SiMPull: lysate of cryo-ground yeast cross-linked with 0.2% formaldehyde, PrA-tagged bait pulled down on rabbit IgG Dynabeads at 8°C for 10 min (mTBT16 buffer: 20 mM HEPES-KOH pH 7.4, 12.5 mM KOAc, 2 mM MgCl2, 0.5% Triton X-100, 0.1% Tween 20), eluted by HRV3C protease, captured on a slide by mNG, HA or Yra1 antibody, TIRF imaging; spot counts and photobleaching steps, no-PrA control subtracted (Sub2-mNG: capture via Cbp20-SNAPf-3HA with HA antibody)
T1 sequence: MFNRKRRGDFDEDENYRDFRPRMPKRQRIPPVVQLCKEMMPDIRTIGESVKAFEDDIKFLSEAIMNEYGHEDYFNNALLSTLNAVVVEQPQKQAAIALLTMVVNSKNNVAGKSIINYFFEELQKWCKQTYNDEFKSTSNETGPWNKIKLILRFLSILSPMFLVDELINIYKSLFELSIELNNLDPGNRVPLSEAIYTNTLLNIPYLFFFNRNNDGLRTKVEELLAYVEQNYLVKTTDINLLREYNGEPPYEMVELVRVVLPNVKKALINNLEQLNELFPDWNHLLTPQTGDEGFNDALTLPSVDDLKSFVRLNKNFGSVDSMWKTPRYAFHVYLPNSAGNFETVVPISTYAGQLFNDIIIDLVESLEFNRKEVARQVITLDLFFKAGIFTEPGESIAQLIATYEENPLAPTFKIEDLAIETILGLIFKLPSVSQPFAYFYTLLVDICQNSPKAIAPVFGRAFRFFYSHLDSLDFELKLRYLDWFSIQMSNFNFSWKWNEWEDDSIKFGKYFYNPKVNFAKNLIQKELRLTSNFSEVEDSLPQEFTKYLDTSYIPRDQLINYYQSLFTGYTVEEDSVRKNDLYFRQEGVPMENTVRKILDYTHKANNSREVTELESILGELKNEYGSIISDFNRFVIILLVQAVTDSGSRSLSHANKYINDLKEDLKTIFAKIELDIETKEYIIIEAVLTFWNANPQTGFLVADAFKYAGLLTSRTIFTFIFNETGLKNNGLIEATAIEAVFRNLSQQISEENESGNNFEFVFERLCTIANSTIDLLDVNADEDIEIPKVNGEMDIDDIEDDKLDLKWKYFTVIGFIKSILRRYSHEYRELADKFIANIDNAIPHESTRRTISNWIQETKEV

[2] = target: T2, Mex67, mNG-tagged (S. cerevisiae) (UniProt Q99257); test: pull-down; mRNP-SiMPull with Cbp80-PrA: Mtr2 in Mex67-bound spots (Figure S5F); tags and capture not given
T2 sequence: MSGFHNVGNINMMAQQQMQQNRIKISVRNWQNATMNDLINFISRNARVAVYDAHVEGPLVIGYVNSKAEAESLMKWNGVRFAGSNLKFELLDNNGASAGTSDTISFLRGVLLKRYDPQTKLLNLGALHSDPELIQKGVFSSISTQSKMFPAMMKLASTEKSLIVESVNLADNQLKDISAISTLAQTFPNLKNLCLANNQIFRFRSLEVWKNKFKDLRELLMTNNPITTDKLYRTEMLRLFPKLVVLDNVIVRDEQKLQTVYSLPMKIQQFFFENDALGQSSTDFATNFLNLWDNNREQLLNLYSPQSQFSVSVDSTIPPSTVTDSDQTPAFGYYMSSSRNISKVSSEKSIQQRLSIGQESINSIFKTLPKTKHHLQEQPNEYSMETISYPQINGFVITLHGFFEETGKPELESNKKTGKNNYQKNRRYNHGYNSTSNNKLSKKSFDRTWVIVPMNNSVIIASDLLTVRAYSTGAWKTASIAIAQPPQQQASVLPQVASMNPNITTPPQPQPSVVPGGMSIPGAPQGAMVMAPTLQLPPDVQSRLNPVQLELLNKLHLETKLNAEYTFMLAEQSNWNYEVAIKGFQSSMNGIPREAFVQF

[3] = target: T3, Nop56-PrA (S. cerevisiae) (UniProt Q12460); test: pull-down; mRNP-SiMPull: lysate of cryo-ground yeast cross-linked with 0.2% formaldehyde, PrA-tagged bait pulled down on rabbit IgG Dynabeads at 8°C for 10 min (mTBT16 buffer: 20 mM HEPES-KOH pH 7.4, 12.5 mM KOAc, 2 mM MgCl2, 0.5% Triton X-100, 0.1% Tween 20), eluted by HRV3C protease, captured on a slide by mNG, HA or Yra1 antibody, TIRF imaging; spot counts and photobleaching steps, no-PrA control subtracted (Sub2-mNG: capture via Cbp20-SNAPf-3HA with HA antibody)
T3 sequence: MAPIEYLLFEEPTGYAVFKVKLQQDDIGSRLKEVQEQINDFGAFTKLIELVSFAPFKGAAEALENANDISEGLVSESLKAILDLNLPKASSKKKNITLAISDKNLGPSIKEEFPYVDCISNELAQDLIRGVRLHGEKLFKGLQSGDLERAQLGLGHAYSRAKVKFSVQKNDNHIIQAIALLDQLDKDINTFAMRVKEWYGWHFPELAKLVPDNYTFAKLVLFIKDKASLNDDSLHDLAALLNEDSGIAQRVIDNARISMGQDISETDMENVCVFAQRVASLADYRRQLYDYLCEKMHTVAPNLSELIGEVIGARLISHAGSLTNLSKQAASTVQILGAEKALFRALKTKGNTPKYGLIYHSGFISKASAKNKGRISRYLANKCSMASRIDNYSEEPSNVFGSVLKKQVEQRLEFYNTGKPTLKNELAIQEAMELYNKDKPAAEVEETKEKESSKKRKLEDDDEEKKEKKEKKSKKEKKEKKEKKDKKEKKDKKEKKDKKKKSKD

binding [3]: binds
B4: mNG-Snu13 (protein, UniProt P39990 1-126)
chain: MSAPNPKAFPLADAALTQQILDVVQQAANLRQLKKGANEATKTLNRGISEFIIMAADCEPIEILLHLPLLCEDKNVPYVFVPSRVALGRACGVSRPVIAASITTNDASAIKTQIYAVKDKIETLLI

binding [3]: binds
B5: Nop58-mNG (protein, UniProt Q12499 1-511)
chain: MAYVLTETSAGYALLKASDKKIYKSSSLIQDLDSSDKVLKEFKIAAFSKFNSAANALEEANSIIEGKVSSQLEKLLEEIKKDKKSTLIVSETKLANAINKLGLNFNVVSDAVTLDIYRAIKEYLPELLPGMSDNDLSKMSLGLAHSIGRHKLKFSADKVDVMIIQAIALLDDLDKELNTYAMRCKEWYGWHFPELAKIVTDSVAYARIILTMGIRSKASETDLSEILPEEIEERVKTAAEVSMGTEITQTDLDNINALAEQIVEFAAYREQLSNYLSARMKAIAPNLTQLVGELVGARLIAHSGSLISLAKSPASTIQILGAEKALFRALKTKHDTPKYGLLYHASLVGQATGKNKGKIARVLAAKAAVSLRYDALAEDRDDSGDIGLESRAKVENRLSQLEGRDLRTTPKVVREAKKVEMTEARAYNADADTAKAASDSESDSDDEEEEKKEKKEKKRKRDDDEDSKDSKKAKKEKKDKKEKKEKKEKKEKKEKKEKKEKKSKKEKKEKK

The remaining lines, values behind:

B1: Cbp20-mNG (protein, UniProt Q08920 1-208)
chain: MSLEEFDEVKYDHSTKRLDTPSRYLLRKARRNPNGLQELRESMKSSTIYVGNLSFYTSEEQIYELFSKCGTIKRIIMGLDRFKFTPCGFCFIIYSCPDEALNALKYLSDTKLDEKTITIDLDPGFEDGRQFGRGKSGGQVSDELRFDFDASRGGFAIPFAERVGVPHSRFDNSSSQSNTNNYIPPPDAMGTFRPGFDEEREDDNYVPQ
binding [1]: binds

B2: Cbp20-SNAPf-3HA (protein, UniProt Q08920 1-208)
chain: B1 chain
modifications: SNAP-Surface 649 dye on the SNAPf tag (partially labeled)
binding [1]: binds

B3: Mtr2 (protein, UniProt P34232 1-184)
chain: MNTNSNTMVMNDANQAQITATFTKKILAHLDDPDSNKLAQFVQLFNPNNCRIIFNATPFAQATVFLQMWQNQVVQTQHALTGVDYHAIPGSGTLICNVNCKVRFDESGRDKMGQDATVPIQPNNTGNRNRPNDMNKPRPLWGPYFGISLQLIIDDRIFRNDFNGVISGFNYNMVYKPEDSLLKI
binding [2]: binds
